In the experiment the target is T1, RPTP69d full length (Drosophila) (UniProt P16620).
T1 sequence: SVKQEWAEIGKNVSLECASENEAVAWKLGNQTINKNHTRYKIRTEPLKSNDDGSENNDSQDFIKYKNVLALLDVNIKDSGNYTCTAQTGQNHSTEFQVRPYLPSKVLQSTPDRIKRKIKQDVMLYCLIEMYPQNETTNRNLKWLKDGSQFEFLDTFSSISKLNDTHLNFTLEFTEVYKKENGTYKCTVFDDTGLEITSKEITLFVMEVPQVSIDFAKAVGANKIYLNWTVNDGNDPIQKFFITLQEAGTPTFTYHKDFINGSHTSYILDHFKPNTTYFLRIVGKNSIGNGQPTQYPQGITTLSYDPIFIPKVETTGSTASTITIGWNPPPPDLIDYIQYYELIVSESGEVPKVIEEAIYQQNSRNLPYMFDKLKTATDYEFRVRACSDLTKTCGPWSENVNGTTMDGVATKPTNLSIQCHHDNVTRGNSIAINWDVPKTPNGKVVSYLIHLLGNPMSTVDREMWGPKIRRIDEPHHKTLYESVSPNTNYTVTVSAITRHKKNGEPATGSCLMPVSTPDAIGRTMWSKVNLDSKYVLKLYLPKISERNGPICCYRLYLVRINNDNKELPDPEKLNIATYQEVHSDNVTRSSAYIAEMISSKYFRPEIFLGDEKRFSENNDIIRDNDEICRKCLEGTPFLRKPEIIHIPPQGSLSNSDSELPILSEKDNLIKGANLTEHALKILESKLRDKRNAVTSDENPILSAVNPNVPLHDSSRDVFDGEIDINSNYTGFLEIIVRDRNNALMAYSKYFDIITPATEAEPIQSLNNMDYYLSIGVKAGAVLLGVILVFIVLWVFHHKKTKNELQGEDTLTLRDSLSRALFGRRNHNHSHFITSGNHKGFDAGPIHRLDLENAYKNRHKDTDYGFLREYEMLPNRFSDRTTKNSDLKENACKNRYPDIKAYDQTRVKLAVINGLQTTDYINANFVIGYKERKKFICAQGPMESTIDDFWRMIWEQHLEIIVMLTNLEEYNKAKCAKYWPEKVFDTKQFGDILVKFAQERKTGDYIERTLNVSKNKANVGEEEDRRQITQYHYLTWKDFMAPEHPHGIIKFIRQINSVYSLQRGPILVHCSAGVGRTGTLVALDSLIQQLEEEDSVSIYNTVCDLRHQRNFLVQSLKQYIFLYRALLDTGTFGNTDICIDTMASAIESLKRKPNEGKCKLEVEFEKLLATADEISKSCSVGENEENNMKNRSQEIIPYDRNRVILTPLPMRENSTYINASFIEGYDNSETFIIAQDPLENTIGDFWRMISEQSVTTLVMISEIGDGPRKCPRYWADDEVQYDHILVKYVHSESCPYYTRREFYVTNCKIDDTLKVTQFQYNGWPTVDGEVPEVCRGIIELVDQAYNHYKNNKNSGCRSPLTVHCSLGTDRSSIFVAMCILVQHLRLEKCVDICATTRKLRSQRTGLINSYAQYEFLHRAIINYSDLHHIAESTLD
As to the kind of experiment: co-IP; immunoprecipitation of RPTP69d from S2 cells in the presence of Slit, without Robo3.

These are yes or no findings as the source states them, for the method shown. Binding seen in cells or lysates may run through a third protein.

B1: Slit (ligand, UniProt P24014 37-1504)
chain: EPYSGGFGSSAVSSGGLGSVGIHIPGGGVGVITEARCPRVCSCTGLNVDCSHRGLTSVPRKISADVERLELQGNNLTVIYETDFQRLTKLRMLQLTDNQIHTIERNSFQDLVSLERLRLNNNRLKAIPENFVTSSASLLRLDISNNVITTVGRRVFKGAQSLRSLQLDNNQITCLDEHAFKGLVELEILTLNNNNLTSLPHNIFGGLGRLRALRLSDNPFACDCHLSWLSRFLRSATRLAPYTRCQSPSQLKGQNVADLHDQEFKCSGLTEHAPMECGAENSCPHPCRCADGIVDCREKSLTSVPVTLPDDTTELRLEQNFITELPPKSFSSFRRLRRIDLSNNNISRIAHDALSGLKQLTTLVLYGNKIKDLPSGVFKGLGSLQLLLLNANEISCIRKDAFRDLHSLSLLSLYDNNIQSLANGTFDAMKSIKTVHLAKNPFICDCNLRWLADYLHKNPIETSGARCESPKRMHRRRIESLREEKFKCSWDELRMKLSGECRMDSDCPAMCHCEGTTVDCTGRGLKEIPRDIPLHTTELLLNDNELGRISSDGLFGRLPHLVKLELKRNQLTGIEPNAFEGASHIQELQLGENKIKEISNKMFLGLHQLKTLNLYDNQISCVMPGSFEHLNSLTSLNLASNPFNCNCHLAWFAEWLRKKSLNGGAARCGAPSKVRDVQIKDLPHSEFKCSSENSEGCLGDGYCPPSCTCTGTVVRCSRNQLKEIPRGIPAETSELYLESNEIEQIHYERIRHLRSLTRLDLSNNQITILSNYTFANLTKLSTLIISYNKLQCLQRHALSGLNNLRVLSLHGNRISMLPEGSFEDLKSLTHIALGSNPLYCDCGLKWFSDWIKLDYVEPGIARCAEPEQMKDKLILSTPSSSFVCRGRVRNDILAKCNACFEQPCQNQAQCVALPQREYQCLCQPGYHGKHCEFMIDACYGNPCRNNATCTVLEEGRFSCQCAPGYTGARCETNIDDCLGEIKCQNNATCIDGVESYKCECQPGFSGEFCDTKIQFCSPEFNPCANGAKCMDHFTHYSCDCQAGFHGTNCTDNIDDCQNHMCQNGGTCVDGINDYQCRCPDDYTGKYCEGHNMISMMYPQTSPCQNHECKHGVCFQPNAQGSDYLCRCHPGYTGKWCEYLTSISFVHNNSFVELEPLRTRPEANVTIVFSSAEQNGILMYDGQDAHLAVELFNGRIRVSYDVGNHPVSTMYSFEMVADGKYHAVELLAIKKNFTLRVDRGLARSIINEGSNDYLKLTTPMFLGGLPVDPAQQAYKNWQIRNLTSFKGCMKEVWINHKLVDFGNAQRQQKITPGCALLEGEQQEEEDDEQDFMDETPHIKEEPVDPCLENKCRRGSRCVPNSNARDGYQCKCKHGQRGRYCDQGEGSTEPPTVTAASTCRKEQVREYYTENDCRSRQPLKYAKCVGGCGNQCCAAKIVRRRKVRMVCSNNRKYIKNLDIVRKCGCTKKCY
With B1, the binding result is reported as “no binding”.

For the origin of these results see article PMC5084709.
